Results: PubChem BioAssay AID463205 (Broad Institute, 2010)
In all, about 2,400 compounds went through this assay and about 20 (0.8%) were called active.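 Rule for the calls: active = AC50 no more than ten times the highest tested concentration, or full inhibition at every dose giving a flat fit (cut at about 30 µM in these data); inconclusive = flat fit with activity between 30% and 70%, or poor-quality invalid fit; inactive = AC50 more than ten times the top tested dose.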 Some of the results follow.

Assay: luciferase-based ADP detection interference – biochemical, luminescence, cell-free, homogeneous, artefact control for GSK-3a inhibitor project, dose response (AID 463205);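 note: kinase-free counter-screen against the ADP-Glo detection reagents only; potency is for inhibitors that reduce the luminescence signal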
Conditions: Cell-free ADP-Glo detection reagents, 5 uM ADP

| SMILES | AC50 |
| --- | --- |
| CCc1nnc(NS(=O)(=O)c2ccc(N/C=C(\C=O)c3nc4cc(Cl)ccc4o3)cc2)s1 | inactive: > 30 µM |
